In all, about 1,400 compounds went through this assay and about 45 (3%) were called active.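 The calls were made as follows: active = half-maximal dose of signal decrease from fit no higher than ten times the top valid tested dose; inconclusive = fit invalid, or curve flat with 30 to 70% inhibition; inactive = the rest.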 This is one part of the list. Potency and affinity values are given separately.
The compounds below were run against Lysine-specific demethylase 4A (Homo sapiens) (UniProt O75164) (assay: JMJD2A histone demethylase inhibitors, dose response, selectivity assay for GASC-1 inhibitor project, biochemical, DELFIA europium, cherry-picked samples (AID 488840;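 also: europium signal reports the dimethyl H3K9 product detected by antibody so inhibitors lower it; 0% = median of neutral control wells and -100% = median of positive control wells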)). Details: GST-JMJD2A(1-420) H3K9me3 demethylation; at 6 µM (top of the series) unless noted.

Chains of the proteins cited; added tags and fusions are not shown. Lines headed by an entry give the natural chain unless they say otherwise; changes in a name come on top.
UniProt O75164: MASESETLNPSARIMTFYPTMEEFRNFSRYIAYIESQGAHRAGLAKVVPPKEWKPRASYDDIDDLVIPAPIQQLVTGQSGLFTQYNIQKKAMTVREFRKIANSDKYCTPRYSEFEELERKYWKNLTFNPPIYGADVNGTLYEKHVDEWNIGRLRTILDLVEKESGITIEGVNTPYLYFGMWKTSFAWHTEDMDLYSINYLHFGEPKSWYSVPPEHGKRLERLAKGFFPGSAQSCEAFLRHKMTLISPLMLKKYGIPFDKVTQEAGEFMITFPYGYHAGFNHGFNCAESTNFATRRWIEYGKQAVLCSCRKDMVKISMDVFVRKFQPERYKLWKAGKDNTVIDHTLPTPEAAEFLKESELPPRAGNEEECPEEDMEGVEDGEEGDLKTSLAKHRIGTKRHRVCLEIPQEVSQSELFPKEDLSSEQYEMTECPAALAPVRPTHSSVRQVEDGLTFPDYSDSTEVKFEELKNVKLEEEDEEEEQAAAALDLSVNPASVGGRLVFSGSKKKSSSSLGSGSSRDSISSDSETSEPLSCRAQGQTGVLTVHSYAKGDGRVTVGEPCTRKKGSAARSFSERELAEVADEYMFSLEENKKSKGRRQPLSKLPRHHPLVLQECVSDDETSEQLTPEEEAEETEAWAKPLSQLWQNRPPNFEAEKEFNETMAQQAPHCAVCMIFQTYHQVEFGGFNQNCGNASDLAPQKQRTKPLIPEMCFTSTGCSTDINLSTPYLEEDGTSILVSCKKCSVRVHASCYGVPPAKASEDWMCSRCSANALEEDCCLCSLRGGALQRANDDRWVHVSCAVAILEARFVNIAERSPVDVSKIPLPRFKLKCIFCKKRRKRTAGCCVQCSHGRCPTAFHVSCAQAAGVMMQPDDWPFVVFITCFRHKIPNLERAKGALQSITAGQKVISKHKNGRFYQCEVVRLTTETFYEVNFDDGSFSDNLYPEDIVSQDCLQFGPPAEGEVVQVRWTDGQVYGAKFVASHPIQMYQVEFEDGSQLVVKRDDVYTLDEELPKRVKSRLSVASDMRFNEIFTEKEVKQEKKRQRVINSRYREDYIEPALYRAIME

Activity change, negative = inhibition, inactive:
CCNc1ccc(S(=O)(=O)N(C)C)cc1NCC(=O)Nc1c(F)cccc1F 2.81%
CN(C)c1ccc(NC(=S)c2ccccn2)cc1 0.977%
CCSc1nnc(-c2cccc(S(=O)(=O)N(CC)CC)c2)n1Cc1ccccc1 -3.54%
Cc1nc2sc(C(c3cccc(F)c3)N3CCOCC3)c(O)n2n1 (centres undefined) 4.91%
O=C(NNC(=O)c1cccs1)c1ccc([N+](=O)[O-])cc1 -5.67%
Nc1ccc2oc(-c3ccccn3)nc2c1 0.514%
O=C(Cc1ccccc1)NC1(O)C(=O)c2ccccc2C1=O -4.47%
CN1CCN(CC(=O)Nc2ccc(S(=O)(=O)N(C)C)cc2)CC1 5.36%
CCCCOC(=O)Cn1cnc2ccc(Br)cc2c1=O -0.0666%
O=C(N/N=C/c1ccc(O)cc1)c1cncc(Br)c1 -5.25%
COC(=O)c1cccc(C#CC(NP(=O)(c2ccccc2)c2ccccc2)c2ccccc2)c1 (centres undefined) 3.94%
Cc1nn(-c2cccc(C(=O)O)c2)c(C)c1Oc1ccccc1O -1.43%
CCN(C[C@H]1N[C@@](CC)(C(=O)OC)[C@H]2C(=O)N(Cc3ccccc3)C(=O)[C@@H]12)S(=O)(=O)c1ccc(C(C)(C)C)cc1 -0.818%
COc1ccc(/C=N/N(C)c2cc(=O)n(C)c(=O)[nH]2)cc1OC 8.31%
CC1CN(Cc2c(O)ccc3c2oc(=O)c2ccccc23)CC(C)O1 (centres undefined) -17%
CC(C)NC(=O)Nc1ccc2c(c1)C(=O)N([C@H](C)CO)C[C@@H](C)[C@@H](CN(C)C(=O)NC1CCCCC1)O2 0.568%
CCOC(=O)Nc1cc(C)c(Cl)cc1OC -3.4%
NC(=O)C1CCN(c2nc(-c3ccccc3Br)cs2)CC1 -1.18%
COC(=O)c1ccc(-c2sc3nc(N4CCOCC4)c4c(c3c2N)CC(C)(C)OC4)o1 -5.55%
CCc1ncc(C)[nH]1 -14.1%
Cn1nc(N)nc1N1CCN(c2ccc(F)cc2)CC1 0.469%
Cc1noc(C)c1NC(=O)N(C)C[C@H]1Oc2ccc(NS(=O)(=O)c3ccccc3)cc2C(=O)N([C@H](C)CO)C[C@@H]1C 9.15%
Cc1ccc(CNC(=O)[C@@H](NC(=O)Cc2ccccc2)C(C)C)cc1 2.23%
COc1ccccc1CCNC(=O)c1ccc(C)o1 -2.2%
O=C(Nc1nc2ccccc2n1CCN1CCCC1)C1CCCCC1 5.58%
CCOC(=O)c1cc2n(n1)C(C(F)(F)F)CC(C)N2 (centres undefined) 7.37%
Nc1c(C(=O)OCC2CCCO2)c2nc3ccccc3nc2n1C1CCCC1 (centres undefined) 0.956%
CCN(C[C@H]1N[C@@](C)(C(=O)OC)[C@H]2C(=O)N(C)C(=O)[C@@H]12)C(=O)Nc1ccccc1 3.6%
O=C(Cn1c(NCCCO)nc2ccccc21)c1ccc(Br)cc1 -8.01%
O=C(NCc1nnc(SCC(=O)N2CCCC2)o1)c1c(F)cccc1Cl 1.02%
CCOc1ccccc1Nc1ncnc2ccccc12 0.0723%
CCOC(=O)c1sc(Nc2nc(OC)cc(OC)n2)nc1C 2.08%
CCOc1ccc2nc(NC(=O)CS(=O)(=O)c3ccc(C)cc3)sc2c1 3.31%
COc1cc(Cl)c(NC2=CC(=O)C(=O)c3ccccc32)c(OC)c1 1.31%
CC(C)(O)[C@H](O)Cc1cc2ccc(=O)oc2cc1O[C@@H]1O[C@H](CO)[C@@H](O)[C@H](O)[C@H]1O -0.509%
COc1ccc(/C=C/C(=O)OCC(=O)c2ccc[nH]2)cc1 -3.39%
O=C(NC1CC2CCC1C2)C1COc2ccccc2O1 (centres undefined) -5.22%
COc1ccc(NC(=S)NNC(=O)c2ccc(S(=O)(=O)N3CCOCC3)cc2)cc1 1.42%
CC(=O)C[C@@H](O)CC(=O)[C@H]1OC(=O)CCCCCc2ccccc21 -3.43%
O=S(=O)(Nc1ccccc1F)c1cccc(NC(=S)NCCN2CCOCC2)c1 -1.8%
COc1ccc2cc3cc(C(=O)N4CCN(C5CCCCC5)CC4)oc3nc2c1 0.0255%
COc1ccc(CCNC(=O)c2ccccc2Cl)cc1OC 0.305%
O=C(C1CCC1)N(CCc1ccccc1)Cc1nc2ccccc2c(=O)[nH]1 0.0474%
Cc1ccc(C2=[N+]([O-])C(C)(C)CC2)cc1 -3.27%
NC(=O)C1CCN(C(=O)CCSc2ccccc2)CC1 1.41%
O=C(NCc1cccc(Cl)c1)c1ccc2c(c1)OCO2 3.27%
COc1ccc(/C(O)=C/Sc2nnc(Cc3ccccc3)o2)cc1 4.63%
O=C(NNC(=O)C1CCN(S(=O)(=O)c2ccccc2)CC1)c1ccccc1O 0.221%
Cc1cccc(NC(=S)N2CCN(Cc3ccc4c(c3)OCO4)CC2)c1C -13%
CCOc1ccc(C(=S)NC2CCCCC2)cc1 -4.07%
Cc1cc2ccccn2c1C(=O)c1ccncc1 7.29%
O=c1ccc2cc3c([nH]c4ccc(Br)cc43)oc-2c1O -19.4%
CC(C)(C)c1ccc(C(=O)OCc2c(-c3ccccc3)ncc3ccccc23)cc1 0.675%
Cc1ccc(Cl)cc1N1CCN(C(=O)c2ccc(NS(=O)(=O)c3c(C)noc3C)cc2)CC1 -2.15%
CCN(CC)C(=O)C1c2ccccc2Oc2ccccc21 -6.17%
O=C1c2ccccc2C(=O)C12OC2c1cccc2ccccc12 (centres undefined) -10.6%
CCn1c(CNC(=O)Cc2ccc(OC)cc2)nnc1SCC(=O)NC1CCCCC1 -4.8%
O=C(CSc1nnc(CNC(=O)c2c(F)cccc2Cl)o1)Nc1ccc2c(c1)OCCO2 0.72%
Cc1ccc(C(c2sc3nc(C)nn3c2O)N2CCN(c3ccccc3F)CC2)cc1 (centres undefined) -3.81%

2 records drawn at random from the list so far:
Activity change, negative = inhibition, inactive:
CCN(C[C@H]1N[C@@](C)(C(=O)OC)[C@H]2C(=O)N(C)C(=O)[C@@H]12)C(=O)Nc1ccccc1 3.6%
CC(=O)C[C@@H](O)CC(=O)[C@H]1OC(=O)CCCCCc2ccccc21 -3.43%

From PubChem BioAssay AID488840 (Broad Institute, 2010)
